PubChem BioAssay AID652259 | Drosophila RNAi Screening Center, 2013
In all, the deposit lists about 22,000 reagents; below is an unselected part of those with a known target gene and a result. In the full data, 233 (1.1%) were called active. 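Light values are raw, unnormalised plate reads; the ratio scores behind the reporter calls were not deposited.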 The record does not give: the amount of reagent, the time to read-out, the dose of the treatment.

Assay: 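Identify new Wingless signalling regulators in fly cells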 (primary screen)
Cell system: Drosophila clone 8 imaginal disc epithelial cells
Reagent: long dsRNA against Drosophila genes
Challenge: pathway stimulated by co-transfected Wingless expression plasmid
Detection: 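Dual luciferase reads per well after Wingless plasmid stimulation: reporter firefly light and Renilla control light; activity is firefly divided by Renilla, a ratio not deposited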
Reading the numbers: firefly reporter light: higher = more Wg reporter light, before normalisation; Renilla control light: higher = more transfected or surviving cells
Hit rule: 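a knock-down is a candidate when at least two out of four statistical tests show it departing from its plate mean; one test alone signals a weak candidate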
Meaning of the calls: active = candidate regulator (raises or lowers reporter); inactive = not a candidate

| target | amplicon | firefly reporter light, replicate 1 | firefly reporter light, replicate 2 | Renilla control light, replicate 1 | Renilla control light, replicate 2 | outcome |
| --- | --- | --- | --- | --- | --- | --- |
| CG1090 (GeneID 40551) | DRSC12150 | 8157 | – | 4112 | – | inactive |
| CG1090 (GeneID 40551) | DRSC21604 | 6.26e5 | 6.54e5 | 3.28e5 | 2.39e5 | inactive |
| fiz (GeneID 32420) | DRSC20188 | 2713 | 11059 | 1117 | 4613 | inactive |
| CG6893 (GeneID 40038) | DRSC10742 | 5835 | – | 3136 | – | inactive |
| yellow-e2 (GeneID 41652) | DRSC15169 | 10432 | – | 1729 | – | inactive |
| CG1239 (GeneID 40706) | DRSC12204 | 4594 | – | 1761 | – | inactive |
| Acbp6 (GeneID 38782) | DRSC10217 | 2040 | 10196 | 1513 | 4545 | inactive |
| CG10527 (GeneID 37393) | DRSC04078 | 12410 | – | 3248 | – | inactive |
| CG15473 (GeneID 31401) | DRSC18056 | 17009 | – | 9124 | – | inactive |
| boil (GeneID 31416) | DRSC17872 | 22842 | – | 9201 | – | inactive |
| Mal-A7 (GeneID 35829) | DRSC06077 | 2280 | 6096 | 794 | 2218 | inactive |
| Noc1 (GeneID 39240) | DRSC10921 | 5072 | – | 2598 | – | inactive |
| Spg7 (GeneID 31253) | DRSC18469 | 13395 | – | 9771 | – | inactive |
| Mitf (GeneID 3885647) | DRSC17212 | 27685 | – | 19814 | – | inactive |
| CG32276 (GeneID 251645) | DRSC08027 | 2848 | – | 1488 | – | inactive |
| Rcd-1 (GeneID 32966) | DRSC19569 | 26964 | – | 12076 | – | inactive |
| CG13308 (GeneID 39011) | DRSC09979 | 1568 | 5853 | 1497 | 2709 | inactive |
| CG7406 (GeneID 32892) | DRSC20042 | 14746 | – | 8228 | – | inactive |
| Fbw5 (GeneID 33854) | DRSC03146 | 2978 | 6336 | 884 | 2624 | inactive |
| PlexB (GeneID 43766) | DRSC17177 | 17339 | – | 16115 | – | inactive |
| CG6901 (GeneID 41977) | DRSC16129 | 19367 | – | 3110 | – | inactive |
| GstD8 (GeneID 48341) | DRSC16689 | 12326 | – | 1585 | – | inactive |
| CG8788 (GeneID 35932) | DRSC07267 | 2304 | 4882 | 816 | 3171 | inactive |
| vito (GeneID 326214) | DRSC21781 | 2.28e5 | 3.12e5 | 88296 | 86447 | inactive |
| Gr85a (GeneID 117475) | DRSC12760 | 2592 | – | 1155 | – | inactive |
| P32 (GeneID 37006) | DRSC06988 | 14523 | – | 3792 | – | inactive |

8 entries from above, reformatted:
{"target":"CG7406 (GeneID 32892)","amplicon":"DRSC20042","firefly reporter light, replicate 1":14746,"Renilla control light, replicate 1":8228,"outcome":"inactive"}
{"target":"Fbw5 (GeneID 33854)","amplicon":"DRSC03146","firefly reporter light, replicate 1":2978,"firefly reporter light, replicate 2":6336,"Renilla control light, replicate 1":884,"Renilla control light, replicate 2":2624,"outcome":"inactive"}
{"target":"PlexB (GeneID 43766)","amplicon":"DRSC17177","firefly reporter light, replicate 1":17339,"Renilla control light, replicate 1":16115,"outcome":"inactive"}
{"target":"CG6901 (GeneID 41977)","amplicon":"DRSC16129","firefly reporter light, replicate 1":19367,"Renilla control light, replicate 1":3110,"outcome":"inactive"}
{"target":"GstD8 (GeneID 48341)","amplicon":"DRSC16689","firefly reporter light, replicate 1":12326,"Renilla control light, replicate 1":1585,"outcome":"inactive"}
{"target":"CG8788 (GeneID 35932)","amplicon":"DRSC07267","firefly reporter light, replicate 1":2304,"firefly reporter light, replicate 2":4882,"Renilla control light, replicate 1":816,"Renilla control light, replicate 2":3171,"outcome":"inactive"}
{"target":"vito (GeneID 326214)","amplicon":"DRSC21781","firefly reporter light, replicate 1":2.28e5,"firefly reporter light, replicate 2":3.12e5,"Renilla control light, replicate 1":88296,"Renilla control light, replicate 2":86447,"outcome":"inactive"}
{"target":"Gr85a (GeneID 117475)","amplicon":"DRSC12760","firefly reporter light, replicate 1":2592,"Renilla control light, replicate 1":1155,"outcome":"inactive"}

The list goes on:
| target | amplicon | firefly reporter light, replicate 1 | firefly reporter light, replicate 2 | Renilla control light, replicate 1 | Renilla control light, replicate 2 | outcome |
| --- | --- | --- | --- | --- | --- | --- |
| CG11986 (GeneID 41083) | DRSC14461 | 3761 | – | 1684 | – | inactive |
| Vinc (GeneID 31201) | DRSC18728 | 1825 | 6192 | 912 | 2339 | inactive |
| ldd (GeneID 318066) | DRSC20558 | 14696 | – | 1258 | – | inactive |
| ldd (GeneID 318066) | DRSC22696 | 6.26e5 | 7.06e5 | 3.62e5 | 3.12e5 | inactive |
| UGP (GeneID 39065) | DRSC10411 | 8000 | – | 3091 | – | inactive |
| CG13896 (GeneID 38089) | DRSC08366 | 5799 | – | 2662 | – | inactive |
| CG7992 (GeneID 32917) | DRSC20070 | 19025 | – | 7821 | – | inactive |
| Reg-2 (GeneID 38075) | DRSC08690 | 10429 | – | 3370 | – | inactive |
| CG7564 (GeneID 39956) | DRSC10880 | 9568 | – | 4151 | – | inactive |
| CG15403 (GeneID 33527) | DRSC00417 | 3661 | 8160 | 1027 | 3450 | inactive |
| CG12316 (GeneID 39650) | DRSC09879 | 2521 | – | 1560 | – | inactive |
| CG12481 (GeneID 32364) | DRSC19461 | 9223 | – | 7060 | – | inactive |
| CG6726 (GeneID 42728) | DRSC16101 | 18064 | – | 13040 | – | inactive |
| CG8478 (GeneID 41194) | DRSC16427 | 17604 | – | 4337 | – | inactive |
| Pif1A (GeneID 8674049) | DRSC12708 | 5161 | – | 1282 | – | inactive |
| Pif1A (GeneID 8674049) | DRSC14383 | 17962 | – | 3616 | – | inactive |
| CG7550 (GeneID 38901) | DRSC10875 | 2000 | 6850 | 1174 | 2738 | inactive |
| CG43795 (GeneID 5740629) | DRSC04192 | 2120 | 8625 | 739 | 3419 | inactive |
| CG43795 (GeneID 5740629) | DRSC04193 | 4352 | 11321 | 1287 | 5509 | inactive |
| CG43795 (GeneID 5740629) | DRSC04194 | 4765 | 8004 | 1200 | 3419 | inactive |
| CG43795 (GeneID 5740629) | DRSC04309 | 2509 | 8229 | 796 | 2776 | inactive |
| CG43795 (GeneID 5740629) | DRSC04310 | 2957 | 7981 | 681 | 1789 | inactive |
| CG43795 (GeneID 5740629) | DRSC04497 | 1827 | 6274 | 496 | 1936 | inactive |
| CG43795 (GeneID 5740629) | DRSC22826 | 8.21e5 | 9.53e5 | 2.91e5 | 3.65e5 | inactive |
| CG18132 (GeneID 33333) | DRSC00518 | 2598 | 5008 | 1048 | 1618 | inactive |
| CG31224 (GeneID 42237) | DRSC15272 | 3075 | – | 885 | – | inactive |
| CG31224 (GeneID 42237) | DRSC16290 | 3808 | 9444 | 944 | 2293 | inactive |
| EMC7 (GeneID 36767) | DRSC07162 | 7075 | – | 2372 | – | inactive |
| RhoGAP19D (GeneID 33048) | DRSC20499 | 2819 | 7830 | 1218 | 2448 | inactive |
| RhoGAP19D (GeneID 33048) | DRSC20500 | 29627 | – | 11671 | – | inactive |
| Crk (GeneID 43775) | DRSC17163 | 3556 | 8342 | 1450 | 4117 | inactive |
| ph-p (GeneID 31181) | DRSC18820 | 23316 | – | 13916 | – | inactive |
| CG32695 (GeneID 31918) | DRSC17975 | 22915 | – | 14488 | – | inactive |
| BoYb (GeneID 40512) | DRSC11637 | 8084 | – | 3354 | – | inactive |
| CG7568 (GeneID 43482) | DRSC16259 | 9106 | – | 3460 | – | inactive |
| RpL22-like (GeneID 37684) | DRSC04582 | 4803 | 5968 | 534 | 3200 | inactive |
| CG12093 (GeneID 38343) | DRSC08252 | 20097 | – | 6679 | – | inactive |
| CG32199 (GeneID 40028) | DRSC09990 | 6422 | – | 2373 | – | inactive |
| CG16989 (GeneID 31026) | DRSC18535 | 28714 | – | 18133 | – | inactive |
| Snoo (GeneID 5740414) | DRSC01008 | 19041 | – | 11991 | – | inactive |
| Snoo (GeneID 5740414) | DRSC03004 | 9474 | – | 3427 | – | inactive |
| Snoo (GeneID 5740414) | DRSC03035 | 2152 | 7057 | 679 | 3501 | inactive |
| Tm2 (GeneID 41853) | DRSC16887 | 15997 | – | 3883 | – | inactive |
| CG10280 (GeneID 40740) | DRSC12133 | 13136 | – | 2796 | – | inactive |
| IM33 (GeneID 33592) | DRSC00476 | 3927 | 8416 | 977 | 2707 | inactive |
| TTLL5 (GeneID 43015) | DRSC14181 | 2905 | 4394 | 1488 | 1448 | inactive |
| CG14054 (GeneID 31172) | DRSC17909 | 10848 | – | 8387 | – | inactive |
